Where a chain is given by its changes, count along the chain named. These are yes or no findings as the source states them, for the method shown. Some binding calls cover weakened binding; strength is not graded here. Values belong to the binder of their own block, whether it stands above or below them.
How the values were obtained:
[1] = molecular target: T1, Europium-conjugated human PD-L1 (human, UniProt Q9NZQ7 19-238, limits assumed, Europium conjugate (site not stated)); test: HTRF blocking assay: Europium-human PD-L1 with Alexa-647 human PD-1 as the blocked ligand, antibody titrated
T1 construct: also called Europium-human PD-L1; PD-L1 (HTRF donor protein)

Protein sequences, listed by entry. Tags and fused reporters are not part of them. Lines headed by an entry give the natural chain unless they say otherwise; changes in a name come on top.
UniProt Q9NZQ7: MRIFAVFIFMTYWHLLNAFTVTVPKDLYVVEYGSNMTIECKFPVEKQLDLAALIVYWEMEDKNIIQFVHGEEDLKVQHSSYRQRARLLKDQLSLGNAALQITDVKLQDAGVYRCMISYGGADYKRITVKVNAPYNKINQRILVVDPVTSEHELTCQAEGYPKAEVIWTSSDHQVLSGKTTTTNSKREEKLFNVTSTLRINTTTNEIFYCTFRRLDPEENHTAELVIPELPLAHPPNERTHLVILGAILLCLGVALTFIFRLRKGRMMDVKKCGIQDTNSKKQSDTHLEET

[2] = molecular target: cynomolgus PD-L1 (Sino biological, 90251-C08H) (cynomolgus) (UniProt G7PSE7); test: BLI (Octet Red)
[3] = molecular target: T1, Europium-conjugated human PD-L1; test: HTRF competition assay: Europium-human PD-L1 with Alexa-647-conjugated Mab 3-16 as competitor, unlabelled Mab 3-16 titrated
[4] = molecular target: T1, Europium-conjugated human PD-L1; test: HTRF competition assay: Europium-human PD-L1 with Alexa-647-conjugated Mab 3-16 as competitor, unlabelled antibody titrated
[5] = molecular target: T1, Europium-conjugated human PD-L1; test: HTRF competitive binding assay on Eu-human PD-L1, competitor Alexa-647-Mab 3-16

- binding [1]: binds
B1: chimeric anti-human PD-L1 antibody Mab 3-14 (antibody, human IgG1, kappa, V domains shown)
VH: QVQLQQSGAELVKPGTSVKLSCKASGYTFSMYYMFWVKQRPGQGLEWIGQINPSNGRTNFNEKFKSKATLTVDKSSTTAYMQLSSLTSEDSAVYYCTREISYDEFAYWGQGTLVTVSA
VL: DVVMTQTPLSLPVSLGDQASISCRSSQSLVHSNGNTYLHWYLQKPGQSPKLLIYRVSNRFSGVPDRFSGSGSGTDFTLKISRVEAEDLGIYFCSQSAHLPYTFGGGTKLEIKR
notes: Mouse variable domains on human IgG1 / kappa constant regions

- binding [2]: binds
- binding [1]: binds
- binding [3]: binds
B2: chimeric anti-human PD-L1 antibody Mab 3-16 (antibody, human IgG1, kappa, V domains shown)
VH: DVQLVESGGGLVQPGGSRKLSCAASGFTFGGFGMHWVRQAPEKGLEWVAYITGDSSTIYYADRVRGRFTISRDNPRNILFLQMTSLGSEDTAMYYCVRGPPGTWAYWGQGTLVTVSA
VL: DIVLTQSPASLAVSLGQRATFSCRASESVEFYGTTLVQWYQQRPGQPPKLLIYGASNVESGVPARFTGSGSGTDFSLNIHPVEEDDIAMYFCQQIRKVPWTFGGGTKLEIRR
notes: Mouse variable domains on human IgG1 / kappa constant regions; also called parent antibody Mab 3-16

- binding [1]: binds
B3: chimeric anti-human PD-L1 antibody Mab 2-04 (antibody, human IgG1, kappa, V domains shown)
VH: QVQLQQSGAELARPGASVKMSCKASGYTFTDYAMHWIKQRPGQGLEWIGFIIPSGDHTDYNQNFKDRATLTADKSSNTAYMQLTSLTPDDSAVYFCARGHGFHLYVMDYWGQGTSVTVSS
VL: DIVMTQSPATLSVTPGDGVSLSCRASQSIADYLHWYQQKSHESPRLLIKYASQSISGIPSRFSGSGSGSDFTLSISSVEPEDVGVYFCQNGHSFPPTFGTGTKLELKR
notes: as for B1

- binding [4]: binds
B4: Hum-1 (antibody, IgG1, V domains shown)
VH: EVQLVESGGGLVQPGGSLRLSCAASGFTFGGFGMNWVRQAPGKGLEWVSYITGDSSTIYYADRVRGRFTISRDNAKNILYLQMNSLGAEDTAVYYCVRGPPGTWAYWGQGTLVTVSS
VL: EIVLTQSPATLSLSPGERATLSCRASESVEFYGTTLVQWYQQKPGQAPRLLIYGASNVESGIPARFSGSGSGTDFTLTISSLEPEDFAVYFCQQIRKVPWTFGQGTKVEIK

- binding [4]: binds
B5: Hum-8 (antibody, IgG1, V domains shown)
VH: B4 VH with G87R
VL: B4 VL with F91Y

- binding [4]: binds
B6: Hum-9 (antibody, IgG1, V domains shown)
VH: B4 VH with G87R
VL: B4 VL with A47P, F91Y

- binding [4]: binds
B7: Hum-4 (antibody, IgG1, V domains shown)
VH: B4 VH with I78S, G87R
VL: B4 VL

- binding [2]: binds
- binding [5]: binds
- binding [4]: binds
B8: humanized anti-human PD-L1 antibody Hum-5 (antibody, human IgG1, kappa, V domains shown)
VH: B4 VH with N35H, I78S, G87R
VL: EIVLTQSPATLSLSPGERATLSCRASESVEFYGTTLVQWYQQKPGQAPRLLIYGASNVESGIPARFSGSGSGTDFTLTISSLEPEDFAVYYCQQIRKVPWTFGQGTKVEIKR

- binding [4]: binds
B9: Hum-3 (antibody, IgG1, V domains shown)
VH: B4 VH with I78S, G87R
VL: B4 VL with A47P, F91Y

- binding [4]: binds
B10: Hum-2 (antibody, IgG1, V domains shown)
VH: B4 VH with I78S, G87R
VL: B4 VL with F91Y

- binding [4]: binds
B11: Hum-10 (antibody, IgG1, V domains shown)
VH: B4 VH with G87R
VL: B4 VL

- binding [4]: binds
B12: Hum-11 (antibody, IgG1, V domains shown)
VH: B4 VH
VL: B4 VL with F91Y

- binding [4]: binds
B13: Hum-12 (antibody, IgG1, V domains shown)
VH: B4 VH
VL: B4 VL with A47P, F91Y

- binding [2]: binds
- binding [5]: binds
- binding [4]: binds
B14: humanized anti-human PD-L1 antibody Hum-7 (antibody, human IgG1, kappa, V domains shown)
VH: B4 VH with N35H, I78S, G87R
VL: B8 VL with Y91F

- binding [2]: binds
- binding [5]: binds
- binding [4]: binds
B15: humanized anti-human PD-L1 antibody Hum-6 (antibody, human IgG1, kappa, V domains shown)
VH: B4 VH with N35H, I78S, G87R
VL: B8 VL with A47P

- binding [1]: binds
B16: chimeric anti-human PD-L1 antibody Mab 3-18 (antibody, human IgG1, kappa, V domains shown)
VH: EVHLQESGPSLVKPSQTLSLTCSVTGDSITSGYWNWIRQFPGNKLEYMGYVSYSGSTYYNPSLKSRISITRDTSKNQYYLQLSSVTTEDTATYYCANYYGDNWPFPLDYWGQGTSVIVSS
VL: DIVMTQAAPSVPVTPGESVSISCRSNKSLLHSNGNTYLYWFLQRPGQSPQLLIYRMSNLASGVPDRFSGSGSGTAFTLTISRVEAEDVGVYYCMQHLEYPFTFGGGTKLEIER
notes: as for B1

- binding [1]: binds
B17: chimeric anti-human PD-L1 antibody Mab 3-17 (antibody, human IgG1, kappa, V domains shown)
VH: B16 VH
VL: DIVMTQSPATLSVTPGDRVSLSCRASQSINGNLHWFQQKSHESPRLLIKYASQSISGIPSRFSGSGSGSDFTLRINSVEPEDVGVYYCQNGHGFPYTFGGGTKLEIKR
notes: as for B1

- binding [1]: binds
B18: chimeric anti-human PD-L1 antibody Mab 1-01 (antibody, human IgG1, kappa, V domains shown)
VH: EVQLQQSGPELVKPGASVKMSCKASGYSFSGYFLNWVKQSHGKSLEWIGRINPSNDDTVYSQKFKDRATLSLDRSSGTVHMELRSLTSEDSAVYYCARFGHASWYFDVWGAGTTVTVSS
VL: QIVLTQSPAIMSASPGEKVTMTCSARSSVIYMSWYQQKPGSSPRLLIYDTSHLASGVPVRFSGSGSGTFYSLIISRVEAEDAATYYCQQWSTYPLTFGAGTRLELNR
notes: as for B1

- binding [1]: binds
B19: chimeric anti-human PD-L1 antibody Mab 1-02 (antibody, human IgG1, kappa, V domains shown)
VH: B18 VH with F106L
VL: B18 VL with V29I, P39T, Y70F, V77M, N106K
notes: as for B1

Source: US20260015423A1 (STAIDSON BIOPHARMA, published 2026)
